# Earlier results in patent publication US20090221082A1, “Microfluidic Evaporators And Determining Physical And/Or Chemical Properties Of Chemical Compounds Therewith” (Rhodia Operations, priority 2005, published 2009).
# For at least one compound, name, drawing or mass did not settle the structure.
# Conditions: cited from earlier work
smiles,measurement,setting,value
"[Cl-].[K+] [KCl, potassium chloride]",diffusion coefficient D,"KCl aqueous solution, at this temperature",~2.0±0.2 10^−5 cm^2/s
same,"solute concentration cx in crystal, Handbook value",,26 M
